{
  "source": "the supplement of paper PMC3334620",
  "note": "Over roughly 33,000 sequences, “E-score (-0.5 to 0.5)” has its median near -0.016; the highest 2% begin near 0.3. This is one part of the list.",
  "data": [
    {"biological_target": "T1, Yer184c (UniProt P39961)", "T1 sequence": "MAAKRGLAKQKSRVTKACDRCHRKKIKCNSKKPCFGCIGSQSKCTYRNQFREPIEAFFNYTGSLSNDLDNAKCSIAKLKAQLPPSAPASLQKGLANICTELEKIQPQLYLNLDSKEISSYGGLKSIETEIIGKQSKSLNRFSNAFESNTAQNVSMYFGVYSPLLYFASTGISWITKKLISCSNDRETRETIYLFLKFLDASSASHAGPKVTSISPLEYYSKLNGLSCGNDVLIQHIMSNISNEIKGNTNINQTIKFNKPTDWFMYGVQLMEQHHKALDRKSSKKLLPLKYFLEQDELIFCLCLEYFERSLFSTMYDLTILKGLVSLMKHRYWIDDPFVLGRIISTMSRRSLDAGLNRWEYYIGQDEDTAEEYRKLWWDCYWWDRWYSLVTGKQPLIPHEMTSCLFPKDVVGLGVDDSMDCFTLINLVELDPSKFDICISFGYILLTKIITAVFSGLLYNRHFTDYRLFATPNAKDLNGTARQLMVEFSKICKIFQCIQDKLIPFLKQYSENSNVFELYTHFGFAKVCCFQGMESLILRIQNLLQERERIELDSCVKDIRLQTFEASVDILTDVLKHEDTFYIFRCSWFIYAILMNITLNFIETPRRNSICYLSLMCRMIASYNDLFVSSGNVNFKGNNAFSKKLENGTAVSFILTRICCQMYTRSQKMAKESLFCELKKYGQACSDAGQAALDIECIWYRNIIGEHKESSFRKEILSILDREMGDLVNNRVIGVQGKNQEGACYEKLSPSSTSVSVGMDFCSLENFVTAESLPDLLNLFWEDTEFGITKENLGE", "test": "PBM E-score (8-mer binding enrichment) (E-score (-0.5 to 0.5)); higher = stronger / more preferred TF binding", "settings": "protein concentration: 100 nM; construct: GST-full length", "outline": "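Detection of bound protein used fluorescent anti-GST, with scans normalised by masliner. The proteins were GST-tagged yeast transcription factors applied at about 100-200 nM to universal all-10-mer Agilent arrays made double-stranded by primer extension. Each ungapped eight-base word, pooled with its reverse complement, was scored with an E-score from the Universal PBM Analysis Suite.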", "values": [
      {"sequence": "CAGGGCGC", "PBM E-score": -0.11},
      {"sequence": "CGCGGAAC", "PBM E-score": 0.382},
      {"sequence": "ACAGCCAA", "PBM E-score": -0.0569},
      {"sequence": "GGCGACAA", "PBM E-score": 0.0682},
      {"sequence": "ACAAGGGC", "PBM E-score": -0.309},
      {"sequence": "AGTGTAAG", "PBM E-score": -0.253},
      {"sequence": "CCCTAAGG", "PBM E-score": -0.174},
      {"sequence": "AGCGGAGA", "PBM E-score": -0.0382},
      {"sequence": "ACTATATC", "PBM E-score": 0.013},
      {"sequence": "GTCGGATA", "PBM E-score": 0.122},
      {"sequence": "CATAGCTA", "PBM E-score": -0.172},
      {"sequence": "ATGGAGAG", "PBM E-score": -0.0917},
      {"sequence": "CGAGGCCA", "PBM E-score": -0.0953},
      {"sequence": "AGGCGACG", "PBM E-score": -0.145},
      {"sequence": "GGGGACCC", "PBM E-score": -0.277},
      {"sequence": "AATCTCCT", "PBM E-score": -0.208},
      {"sequence": "CCCGTGAC", "PBM E-score": -0.0772},
      {"sequence": "GTACAAAA", "PBM E-score": 0.131},
      {"sequence": "TACCCCGA", "PBM E-score": 0.147},
      {"sequence": "ACTCAAGG", "PBM E-score": -0.0344},
      {"sequence": "ATTTCACC", "PBM E-score": 0.0839},
      {"sequence": "CAACGTTC", "PBM E-score": -0.0683},
      {"sequence": "AGGTTGGA", "PBM E-score": 0.0437},
      {"sequence": "CTTTCCTA", "PBM E-score": -0.101},
      {"sequence": "ATCGTGTG", "PBM E-score": 0.0811},
      {"sequence": "CTGTTGAA", "PBM E-score": 0.271},
      {"sequence": "ATTTTGGC", "PBM E-score": 0.123},
      {"sequence": "ACTGGTTA", "PBM E-score": 0.0241},
      {"sequence": "ACTTTAAC", "PBM E-score": 0.00964},
      {"sequence": "ACAGGCCA", "PBM E-score": -0.116},
      {"sequence": "ATATCCCA", "PBM E-score": 0.147},
      {"sequence": "CAGTTGTA", "PBM E-score": -0.0804},
      {"sequence": "CGTCAATC", "PBM E-score": 0.0423},
      {"sequence": "AGAAGTAG", "PBM E-score": -0.178},
      {"sequence": "CTGGTGTA", "PBM E-score": -0.234},
      {"sequence": "CCATCTCG", "PBM E-score": -0.0305},
      {"sequence": "ACGATTGG", "PBM E-score": -0.0158},
      {"sequence": "AGCGGTTA", "PBM E-score": -0.0442},
      {"sequence": "ATGCCTTC", "PBM E-score": -0.164},
      {"sequence": "AGGGAGCG", "PBM E-score": -0.183},
      {"sequence": "ATATTCAT", "PBM E-score": 0.043},
      {"sequence": "CATACCGG", "PBM E-score": 0.0061},
      {"sequence": "ACCGTCTC", "PBM E-score": 0.12},
      {"sequence": "CCGTTGAC", "PBM E-score": -0.0859},
      {"sequence": "ATCAAGGA", "PBM E-score": -0.0495},
      {"sequence": "ACCGACCA", "PBM E-score": 0.0704},
      {"sequence": "AAAGATCA", "PBM E-score": 0.163},
      {"sequence": "ACACCTAC", "PBM E-score": -0.161},
      {"sequence": "ATGTAAAA", "PBM E-score": 0.109},
      {"sequence": "CCTTTCCC", "PBM E-score": 0.125},
      {"sequence": "AACCATCA", "PBM E-score": 0.0573},
      {"sequence": "ATTCATAC", "PBM E-score": 0.165},
      {"sequence": "GATTTTAA", "PBM E-score": 0.154},
      {"sequence": "ACAACAGG", "PBM E-score": 0.0435},
      {"sequence": "CTAAAAAA", "PBM E-score": 0.226},
      {"sequence": "ATGCAAAT", "PBM E-score": 0.00245},
      {"sequence": "ATGAGTGC", "PBM E-score": -0.00199},
      {"sequence": "AAAATCAG", "PBM E-score": 0.0867},
      {"sequence": "CAAGGTAA", "PBM E-score": 0.0865},
      {"sequence": "ATGGATTG", "PBM E-score": 0.0538},
      {"sequence": "CTCTTATC", "PBM E-score": 0.158},
      {"sequence": "CTTATCAA", "PBM E-score": 0.116},
      {"sequence": "GCTCTACA", "PBM E-score": 0.0271},
      {"sequence": "AGTACTAC", "PBM E-score": 0.102},
      {"sequence": "AGAGAAGC", "PBM E-score": -0.0358},
      {"sequence": "GGCTGGCA", "PBM E-score": -0.301},
      {"sequence": "AGCGGTAA", "PBM E-score": 0.0767},
      {"sequence": "ATAGGCAC", "PBM E-score": -0.237},
      {"sequence": "AGTTAGCA", "PBM E-score": 0.0491},
      {"sequence": "ACTATACG", "PBM E-score": 0.0833},
      {"sequence": "ACCAGAGG", "PBM E-score": -0.189},
      {"sequence": "ACAATAGG", "PBM E-score": -0.015},
      {"sequence": "AATAAAGA", "PBM E-score": 0.132},
      {"sequence": "AATGCATA", "PBM E-score": -0.0579},
      {"sequence": "AGTGCGAG", "PBM E-score": -0.0901},
      {"sequence": "GACTCCTC", "PBM E-score": -0.0552},
      {"sequence": "AGAGGCCA", "PBM E-score": -0.291},
      {"sequence": "TCGTCTAA", "PBM E-score": 0.00749},
      {"sequence": "CCGGGATC", "PBM E-score": 0.339},
      {"sequence": "AGCCCGAT", "PBM E-score": -0.0108},
      {"sequence": "TGTCCCAA", "PBM E-score": -0.00913},
      {"sequence": "ATCGTGGG", "PBM E-score": -0.0117},
      {"sequence": "ATAGTCTG", "PBM E-score": 0.0462},
      {"sequence": "CGTATCTC", "PBM E-score": 0.0677},
      {"sequence": "GCTTCGCA", "PBM E-score": -0.163},
      {"sequence": "AACAGGGG", "PBM E-score": -0.0987}
    ]}
  ]
}
